pKd: −log10 of the molar value. The match of structure and compound is tentative.
These molecules were tested against cIAP-1 BIR-3 (Homo sapiens, UniProt Q13490) (assay: Fluorescence polarization binding to cIAP-1 BIR-3 (competition with AbuRPF-K(5-Fam)-NH2)). Conditions: cells marked (cIAP-1): cIAP-1 BIR-3; reported as range class.
Protocol: (§1) The binding affinities of the compounds are reported as a Kd value. Briefly, various concentrations of test peptides were mixed with 5 nM of the fluorescently labeled peptide (i.e., a mutated N-terminal Smac peptide—AbuRPF-K(5-Fam)-NH2) and 40 nM of the BIR3 for 15 min at RT in […] of 0.1M Potassium Phosphate buffer, pH 7.5 containing […] bovine g-globulin. Following incubation, the polarization values (mP) were measured on a Victor2V (available from PerkinElmer Life Sciences) using a 485 nm excitation filter and a 520 nm emission filter. The reported Kd values are supplied as ranges (A=<0.1 μM, B=0.1 μM to C=>1 μM to 10 μM, D=>10 μM) and, unless otherwise indicated, are the Kd for XIAP BIR-3.

By UniProt entry, the sequences of proteins in these tests, tags left out. Residues count along the entry.
UniProt Q13490, 266-343 limits assumed: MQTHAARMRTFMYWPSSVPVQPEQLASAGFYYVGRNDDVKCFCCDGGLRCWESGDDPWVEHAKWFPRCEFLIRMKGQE
UniProt P98170, 241-356 limits assumed: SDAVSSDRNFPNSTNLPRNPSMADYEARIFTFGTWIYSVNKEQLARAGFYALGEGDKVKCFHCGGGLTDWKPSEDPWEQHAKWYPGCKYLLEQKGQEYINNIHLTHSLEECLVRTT

pKd | Compound
> 7.00 | CC[C@H](NC)C(=O)N[C@H](C(=O)N1CC[C@H](O)[C@H]1Cc1c(Cl)[nH]c2cc(F)ccc12)C(C)(C)C
> 7.00 | CN[C@@H](C)C(=O)N[C@H](C(=O)N1C[C@@H](O)C[C@H]1C(=O)c1c[nH]c2cc(F)ccc12)C1CCCCC1
5.00 to 6.00 | CN[C@@H](C)C(=O)N[C@H](C(=O)N1C[C@H](O)C[C@H]1C(=O)c1c[nH]c2cc(F)ccc12)C1CCCCC1
> 7.00 | CN[C@@H](C)C(=O)N[C@H](C(=O)N1C[C@@H](O)C[C@H]1C[C@@H]1CN(C(C)=O)c2ccccc21)[C@@H](C)OC
5.00 to 6.00 | CN[C@@H](C)C(=O)N[C@H](C(=O)N1C[C@H](O)C[C@H]1C(=O)c1c[nH]c2cc(F)ccc12)C(C)(C)C
< 7.00 | CCN[C@@H](C)C(=O)N[C@H](C(=O)N1C[C@@H](O)C[C@H]1C[C@@H]1CN(C(C)=O)c2ccc(CC)cc21)C1CCCCC1
< 7.00 | CN[C@@H](C)C(=O)N[C@H](C(=O)N1CC[C@H](OC)[C@H]1Cc1c(Cl)[nH]c2cc(F)ccc12)C(C)C
> 7.00 | CN[C@@H](C)C(=O)N[C@H](C(=O)N1CC[C@@H](O)[C@H]1Cc1c(-c2ccc(F)cc2)[nH]c2ccccc12)[C@@H](C)OC
> 7.00 | CCN[C@@H](C)C(=O)N[C@H](C(=O)N1CC[C@@H](O)[C@H]1Cc1c[nH]c2ccccc12)C(C)C

The molecules below were run against XIAP BIR-3 (Homo sapiens, UniProt P98170) (assay: Fluorescence polarization binding to XIAP BIR-3 (competition with AbuRPF-K(5-Fam)-NH2)). Conditions: XIAP BIR-3 (default where cell does not indicate otherwise); reported as range class.
Protocol: as §1

pKd | Compound
< 5.00 | CCN[C@@H](C)C(=O)N[C@H](C(=O)N1CC[C@H](OC)[C@H]1Cc1c[nH]c2cc(F)ccc12)C(C)(C)C
> 7.00 | CC[C@H](NC)C(=O)N[C@H](C(=O)N1CCC[C@H]1Cc1c[nH]c2ncccc12)[C@@H](C)OC
< 5.00 | CC[C@H](NC)C(=O)N[C@H](C(=O)N1CC[C@H](OC)[C@H]1Cc1c[nH]c2cc(F)ccc12)C(C)(C)C
< 5.00 | CC[C@H](NC)C(=O)N[C@H](C(=O)N1CC[C@H](OC)[C@H]1Cc1cn(C)c2cc(F)ccc12)[C@@H](C)OC
> 7.00 | CN[C@@H](C)C(=O)N[C@H](C(=O)N1C[C@@H](O)C[C@H]1Cc1c[nH]c2ncccc12)C(C)(C)C
> 7.00 | CC[C@H](NC)C(=O)N[C@H](C(=O)N1CC[C@H](O)[C@H]1Cc1c[nH]c2cc(F)ccc12)C1CCCCC1
< 7.00 | CC[C@H](NC)C(=O)N[C@H](C(=O)N1CC[C@H](C)[C@H]1Cc1c[nH]c2cc(F)ccc12)[C@@H](C)O

Reference: patent publication US20110288116A1, “IAP INHIBITORS” (TETRALOGIC PHARMACEUITCAL CORPORATION, priority 2008, published 2011)
